The assay concerns the target T1, synaptic vesicle glycoprotein 2C (mouse (endogenous in striatum of WT C57BL/6 mice)) (UniProt Q69ZS6).
T1 sequence: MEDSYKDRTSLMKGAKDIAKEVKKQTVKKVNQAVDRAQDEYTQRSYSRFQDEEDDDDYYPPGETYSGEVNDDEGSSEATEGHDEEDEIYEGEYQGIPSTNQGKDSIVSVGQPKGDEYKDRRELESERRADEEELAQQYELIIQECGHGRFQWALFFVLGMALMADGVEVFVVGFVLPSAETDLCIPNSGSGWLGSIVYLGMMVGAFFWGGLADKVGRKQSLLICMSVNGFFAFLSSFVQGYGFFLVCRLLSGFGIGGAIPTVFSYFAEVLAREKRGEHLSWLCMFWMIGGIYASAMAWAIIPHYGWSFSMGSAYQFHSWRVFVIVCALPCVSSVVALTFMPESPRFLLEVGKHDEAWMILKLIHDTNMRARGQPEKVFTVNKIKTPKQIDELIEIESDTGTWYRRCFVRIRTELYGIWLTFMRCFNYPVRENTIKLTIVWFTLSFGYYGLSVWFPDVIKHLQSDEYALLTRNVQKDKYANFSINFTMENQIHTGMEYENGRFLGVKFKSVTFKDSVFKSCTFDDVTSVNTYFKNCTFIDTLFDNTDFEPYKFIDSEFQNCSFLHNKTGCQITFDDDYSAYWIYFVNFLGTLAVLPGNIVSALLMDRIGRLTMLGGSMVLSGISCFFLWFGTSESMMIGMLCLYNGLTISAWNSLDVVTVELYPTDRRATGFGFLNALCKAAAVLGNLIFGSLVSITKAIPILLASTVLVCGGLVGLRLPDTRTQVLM
Nature of the assay: co-IP.

The chains behind the UniProt entries cited, without tags or fusion partners.
UniProt P24529: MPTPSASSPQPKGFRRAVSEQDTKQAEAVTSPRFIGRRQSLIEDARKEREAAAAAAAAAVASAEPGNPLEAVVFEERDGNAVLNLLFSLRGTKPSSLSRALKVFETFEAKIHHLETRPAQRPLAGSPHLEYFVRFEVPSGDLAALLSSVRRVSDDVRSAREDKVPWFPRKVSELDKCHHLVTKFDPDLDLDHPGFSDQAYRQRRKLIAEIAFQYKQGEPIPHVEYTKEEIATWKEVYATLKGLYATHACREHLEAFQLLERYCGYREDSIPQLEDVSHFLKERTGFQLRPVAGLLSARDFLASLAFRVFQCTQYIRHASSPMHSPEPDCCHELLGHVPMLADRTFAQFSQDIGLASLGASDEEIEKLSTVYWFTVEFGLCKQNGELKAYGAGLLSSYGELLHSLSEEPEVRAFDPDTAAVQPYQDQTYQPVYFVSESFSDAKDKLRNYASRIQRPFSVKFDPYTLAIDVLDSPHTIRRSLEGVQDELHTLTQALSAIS
UniProt P46096: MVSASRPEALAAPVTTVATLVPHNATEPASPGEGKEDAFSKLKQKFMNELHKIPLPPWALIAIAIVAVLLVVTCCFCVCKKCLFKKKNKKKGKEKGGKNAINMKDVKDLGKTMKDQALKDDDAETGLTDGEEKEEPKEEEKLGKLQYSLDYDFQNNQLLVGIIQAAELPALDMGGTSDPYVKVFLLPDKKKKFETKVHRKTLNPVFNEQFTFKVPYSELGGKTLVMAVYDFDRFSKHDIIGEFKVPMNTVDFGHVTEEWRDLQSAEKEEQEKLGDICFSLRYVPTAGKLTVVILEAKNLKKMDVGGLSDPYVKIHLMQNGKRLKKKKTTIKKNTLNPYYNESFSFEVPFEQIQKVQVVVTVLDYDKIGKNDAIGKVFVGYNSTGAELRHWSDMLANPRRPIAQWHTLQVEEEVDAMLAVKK
UniProt Q61327: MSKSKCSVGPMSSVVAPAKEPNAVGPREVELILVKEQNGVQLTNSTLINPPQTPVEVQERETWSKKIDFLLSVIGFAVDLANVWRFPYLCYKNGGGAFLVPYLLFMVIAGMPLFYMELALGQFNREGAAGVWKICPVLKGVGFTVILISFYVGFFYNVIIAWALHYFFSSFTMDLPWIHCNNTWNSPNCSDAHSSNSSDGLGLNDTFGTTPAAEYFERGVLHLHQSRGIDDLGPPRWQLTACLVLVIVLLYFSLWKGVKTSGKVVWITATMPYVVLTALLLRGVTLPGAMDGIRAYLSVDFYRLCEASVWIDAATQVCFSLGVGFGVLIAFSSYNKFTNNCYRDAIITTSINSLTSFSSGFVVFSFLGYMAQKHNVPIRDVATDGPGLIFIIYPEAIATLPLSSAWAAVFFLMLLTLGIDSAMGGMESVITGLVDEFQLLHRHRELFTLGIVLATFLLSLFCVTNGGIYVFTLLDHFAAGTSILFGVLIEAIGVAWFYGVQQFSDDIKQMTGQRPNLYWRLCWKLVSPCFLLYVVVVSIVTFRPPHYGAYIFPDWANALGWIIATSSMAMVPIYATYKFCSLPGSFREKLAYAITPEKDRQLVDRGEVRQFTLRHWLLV

No constants are given. Whether binding was seen depends on the method and setting. In cells and extracts the contact can be indirect. Some entries that bind do so weakly or less than the wild type.

For the substance “tyrosine hydroxylase (from UniProt P24529 1-498) (enzyme)”, the binding result is recorded as “no binding”.

As to “Synaptotagmin-1 (from UniProt P46096 1-421)”, the binding entry was “binds”.

“dopamine transporter (from UniProt Q61327 1-619)”: the binding result is “no binding”.

The record behind these values is publication doi:10.1101/077586.
